# According to the supplement of paper PMC8728848:
# The list shows a part of the results.
# B1: CRT-1 (Homo sapiens), P27797 (protein)
# chain: MLLSVPLLLGLLGLAVAEPAVYFKEQFLDGDGWTSRWIESKHKSDFGKFVLSSGKFYGDEEKDKGLQTSQDARFYALSASFEPFSNKGQTLVVQFTVKHEQNIDCGGGYVKLFPNSLDQTDMHGDSEYNIMFGPDICGPGTKKVHVIFNYKGKNVLINKDIRCKDDEFTHLYTLIVRPDNTYEVKIDNSQVESGSLEDDWDFLPPKKIKDPDASKPEDWDERAKIDDPTDSKPEDWDKPEHIPDPDAKKPEDWDEEMDGEWEPPVIQNPEYKGEWKPRQIDNPDYKGTWIHPEIDNPEYSPDPSIYAYDNFGVLGLDLWQVKSGTIFDNFLITNDEAYAEEFGNETWGVTKAAEKQMKDKQDEEQRLKEEEEDKKRKEEEEAEDKEDDEDKDEDEEDEEDKEEDEEEDVPGQAKDEL
# Key:
# Assay in all cases: glycan array binding signal (z-score within array); higher = stronger binding
# Settings in all cases: glycan notation: IUPAC condensed, linker removed
# [1] = target: Fuc(a1-3)[Gal3S(b1-4)]GlcNAc
# In short: (§1)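 Glycan array data were curated from 3228 arrays in the Consortium for Functional Glycomics database and kept only where the protein sequence was available. Glycan names were converted to IUPAC-condensed notation, and columns mapping to the same glycan were averaged. The binding signal is a within-array Z-score, averaged across arrays of the same protein sequence at different concentrations or buffers and across linkers. Negative Z-scores can be read as non-binding.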
# [2] = target: Fuc(a1-3)[Gal3S(b1-4)]GlcNAc6S
# In short: as §1
# [3] = target: Fuc(a1-3)[GalNAc(b1-4)]GlcNAc
# In short: as §1
# [4] = target: Fuc(a1-3)[GalNAc(b1-4)]GlcNAc6S
# In short: as §1
# [5] = target: Fuc(a1-4)GlcNAc
# In short: as §1
# [6] = target: Fuc(b1-3)GlcNAc
# In short: as §1
# [7] = target: Gal(a1-2)Gal
# In short: as §1
# [8] = target: Gal(a1-3)Gal
# In short: as §1
# [9] = target: Gal(a1-3)Gal(b1-3)GlcNAc
# In short: as §1
# [10] = target: Gal(a1-3)Gal(b1-3)GlcNAc(b1-2)Man
# In short: as §1
# [11] = target: Gal(a1-3)Gal(b1-3)GlcNAc(b1-2)Man(a1-3)[Gal(a1-3)Gal(b1-3)GlcNAc(b1-2)Man(a1-6)]Man(b1-4)GlcNAc(b1-4)GlcNAc
# In short: as §1
# [12] = target: Gal(a1-3)Gal(b1-3)GlcNAc(b1-3)GalNAc
# In short: as §1
# [13] = target: Gal(a1-3)Gal(b1-3)GlcNAc(b1-6)GalNAc
# In short: as §1
# [14] = target: Gal(a1-3)Gal(b1-3)[Fuc(a1-4)]GlcNAc(b1-2)Man(a1-3)[Gal(a1-3)Gal(b1-3)[Fuc(a1-4)]GlcNAc(b1-2)Man(a1-6)]Man(b1-4)GlcNAc(b1-4)GlcNAc
# In short: as §1
# [15] = target: Gal(a1-3)Gal(b1-4)Glc
# In short: as §1
# [16] = target: Gal(a1-3)Gal(b1-4)GlcNAc
# In short: as §1
# [17] = target: Gal(a1-3)Gal(b1-4)GlcNAc(b1-2)Man
# In short: as §1
# [18] = target: Gal(a1-3)Gal(b1-4)GlcNAc(b1-2)Man(a1-3)[Gal(a1-3)Gal(b1-4)GlcNAc(b1-2)Man(a1-6)]Man(b1-4)GlcNAc(b1-4)GlcNAc
# In short: as §1
# [19] = target: Gal(a1-3)Gal(b1-4)GlcNAc(b1-3)GalNAc
# In short: as §1
# [20] = target: Gal(a1-3)Gal(b1-4)GlcNAc(b1-6)GalNAc
# In short: as §1
# [21] = target: Gal(a1-3)Gal(b1-4)[Fuc(a1-3)]GlcNAc
# In short: as §1
# [22] = target: Gal(a1-3)Gal(b1-4)[Fuc(a1-3)]GlcNAc(b1-2)Man(a1-3)[Gal(a1-3)Gal(b1-4)[Fuc(a1-3)]GlcNAc(b1-2)Man(a1-6)]Man(b1-4)GlcNAc(b1-4)GlcNAc
# In short: as §1
# [23] = target: Gal(a1-3)GalNAc
# In short: as §1
# [24] = target: Gal(a1-3)[Gal(a1-4)]Gal(b1-4)GlcNAc
# In short: as §1
# [25] = target: Gal(a1-4)Gal(b1-3)GlcNAc(b1-2)Man(a1-3)[Gal(a1-4)Gal(b1-3)GlcNAc(b1-2)Man(a1-6)]Man(b1-4)GlcNAc(b1-4)GlcNAc
# In short: as §1
# [26] = target: Gal(a1-4)Gal(b1-4)Glc
# In short: as §1
# [27] = target: Gal(a1-4)Gal(b1-4)GlcNAc
# In short: as §1
# [28] = target: Gal(a1-4)Gal(b1-4)GlcNAc(b1-2)Man(a1-3)[Gal(a1-4)Gal(b1-4)GlcNAc(b1-2)Man(a1-6)]Man(b1-4)GlcNAc(b1-4)GlcNAc
# In short: as §1
# [29] = target: Gal(a1-4)Gal(b1-4)GlcNAc(b1-3)Gal(b1-4)Glc
# In short: as §1
# [30] = target: Gal(a1-4)GlcNAc
# In short: as §1
# [31] = target: Gal(a1-6)Glc
# In short: as §1
# [32] = target: Gal(b1-2)Gal
# In short: as §1
# [33] = target: Gal(b1-3)Gal
# In short: as §1
# [34] = target: Gal(b1-3)Gal(b1-4)GlcNAc
# In short: as §1
# [35] = target: Gal(b1-3)Gal(b1-4)GlcNAc(b1-2)Man(a1-3)[Gal(b1-3)Gal(b1-4)GlcNAc(b1-2)Man(a1-6)]Man(b1-4)GlcNAc(b1-4)GlcNAc
# In short: as §1
# [36] = target: Gal(b1-3)GalNAc
# In short: as §1
# [37] = target: Gal(b1-3)GalNAc(a1-3)[Fuc(a1-2)]Gal(b1-4)Glc
# In short: as §1
# [38] = target: Gal(b1-3)GalNAc(a1-3)[Fuc(a1-2)]Gal(b1-4)GlcNAc
# In short: as §1
binder,measurement,setting,value
B1,glycan array binding signal (z-score),[1],0.572
same,glycan array binding signal (z-score),[2],0.146
same,glycan array binding signal (z-score),[3],0.552
same,glycan array binding signal (z-score),[4],0.175
same,glycan array binding signal (z-score),[5],-0.026
same,glycan array binding signal (z-score),[6],-0.187
same,glycan array binding signal (z-score),[7],-0.019
same,glycan array binding signal (z-score),[8],0.158
same,glycan array binding signal (z-score),[9],-0.43
same,glycan array binding signal (z-score),[10],-0.424
same,glycan array binding signal (z-score),[11],0.598
same,glycan array binding signal (z-score),[12],0.287
same,glycan array binding signal (z-score),[13],-0.381
same,glycan array binding signal (z-score),[14],0.078
same,glycan array binding signal (z-score),[15],-0.044
same,glycan array binding signal (z-score),[16],0.249
same,glycan array binding signal (z-score),[17],-0.279
same,glycan array binding signal (z-score),[18],0.027
same,glycan array binding signal (z-score),[19],-0.587
same,glycan array binding signal (z-score),[20],-0.547
same,glycan array binding signal (z-score),[21],0.806
same,glycan array binding signal (z-score),[22],0.15
same,glycan array binding signal (z-score),[23],-0.364
same,glycan array binding signal (z-score),[24],0.255
same,glycan array binding signal (z-score),[25],0.639
same,glycan array binding signal (z-score),[26],-0.079
same,glycan array binding signal (z-score),[27],0.302
same,glycan array binding signal (z-score),[28],-0.021
same,glycan array binding signal (z-score),[29],0.412
same,glycan array binding signal (z-score),[30],-0.007
same,glycan array binding signal (z-score),[31],-0.077
same,glycan array binding signal (z-score),[32],-0.064
same,glycan array binding signal (z-score),[33],0.051
same,glycan array binding signal (z-score),[34],1.47
same,glycan array binding signal (z-score),[35],0.485
same,glycan array binding signal (z-score),[36],-0.124
same,glycan array binding signal (z-score),[37],0.282
same,glycan array binding signal (z-score),[38],-0.212

# An excerpt of these results, bar-delimited.
binder | measurement | setting | value
B1 | glycan array binding signal (z-score) | [20] | -0.547
same | glycan array binding signal (z-score) | [21] | 0.806
